# Reference: PubChem BioAssay AID1487 (National Center for Advancing Translational Sciences (NCATS), 2009)
# This is one part of the list. Shown are side measurements of this screen, not its main read-out; they come without a call. Most of these compounds were active or inconclusive in the main read-out, so they are no random draw. Words in brackets tell the shape of the fitted curve; partial curves, single points and poor fits give uncertain potencies.
# Assay: qHTS Assay for Modulators of Lamin A Splicing
# Settings: HeLa LMNA splicing GFP/RFP minigene ratio, 48 h
# Procedure, shortened: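 S3 HeLa stable clones carrying a lamin A-EGFP splicing minigene plus DsRed2 were seeded at 600 cells/well in Opti-MEM with 2% FBS, pin-dosed and incubated 48 h at 37°C. Acumen cytometry (488 nm) gave the GFP/RFP total-intensity ratio.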
# [1] = measured here: GFP splicing reporter channel
# [2] = measured here: RFP viability control channel
SMILES,AC50 [1],AC50 [2]
CCOC(=O)c1[nH]c2ccccc2c1NC(=S)Nc1ccccc1,"1.41 µM [falling, single point]",
O=C(CC(NC(=O)OCc1ccccc1)C(=O)O)OCc1ccccc1 (centres undefined),,"0.794 µM [rising, single point]"
COCCN(CCOC)Cc1c(O)ccc2c3c(c(=O)oc12)CCC3,"15.8 µM [rising, single point]","15.8 µM [rising, single point]"
O=C(CCC1N=C2c3ccccc3N=C(SCc3ccc(Cl)cc3)N2C1=O)NCc1ccco1 (centres undefined),"35.5 µM [rising, partial curve, poor fit]",
Cc1c(NC(=O)COC(=O)c2cc(-c3ccc(-c4ccccc4)cc3)nc3ccccc23)c(=O)n(-c2ccccc2)n1C,,"0.708 µM [rising, full curve]"
O=[N+]([O-])c1[nH]cnc1/C=C/c1ccccc1,"10 µM [rising, single point]",
COc1ccc2nc3sc(C(=O)NCCCN4CCc5ccccc5C4)cc3cc2c1,,"31.6 µM [rising, single point]"
COC(=O)c1cc(C)sc1NC(=O)C1C2C=CC(CC2)C1C(=O)O (centres undefined),"1.26 µM [falling, partial curve, poor fit]","1.26 µM [falling, partial curve]"
COc1ccc(Cn2c(SCC(N)=O)nc3c(sc4ccccc43)c2=O)cc1,"35.5 µM [falling, single point]","35.5 µM [falling, partial curve, poor fit]"
COCCn1c(SCc2cnc(-c3ccccc3)s2)nnc1-c1ccncc1,,"12.6 µM [rising, partial curve]"
CN(c1ccc(C(=O)N2CCOCC2)cc1[N+](=O)[O-])C1CCCCC1,"11.2 µM [rising, single point]","20 µM [rising, single point]"
O=C1CC(N(CCc2ccccc2)C(=S)Nc2ccccc2)C(=O)N1c1ccc(Br)cc1 (centres undefined),"35.5 µM [falling, single point]","35.5 µM [falling, single point]"
O=C1OCCC1Sc1nc2ccccc2c(=O)n1Cc1ccccc1 (centres undefined),"0.0794 µM [rising, full curve, poor fit]",
Cc1ccc2[nH]c(CSc3nnc(COc4ccccc4C)n3C)cc(=O)c2c1,,"0.0251 µM [falling, full curve, poor fit]"
Cc1cccc(NC(=O)c2ccc(N3CCCCC3)c([N+](=O)[O-])c2)n1,,"10 µM [rising, partial curve]"
Cc1ccc(-n2[nH]c(C)c(/C=N/NC(=O)c3cccc([N+](=O)[O-])c3)c2=O)cc1C,,"3.55 µM [rising, full curve]"
Cc1cc(OCC(=O)Nc2ccncc2)ccc1Br,,"11.2 µM [rising, partial curve]"

SMILES,AC50 [1],AC50 [2]
CCc1ccc(Nc2nnc(SCC(=O)NCCN3C(=O)CSC3=O)s2)cc1,"35.5 µM [rising, single point]",
O=C(O)Cn1cc(/C=C2\SC(=O)N(c3ccccc3)C2=O)c2ccccc21,"0.891 µM [falling, partial curve, poor fit]","0.158 µM [falling, full curve, poor fit]"
Cc1ccccc1OCC(O)CN(Cc1ccccc1O)C1CCCCC1 (centres undefined),"0.0708 µM [falling, full curve, poor fit]",
O=C1c2cnc3nc(SCc4ccccc4)nn3c2CC2c3ccccc3CCN12 (centres undefined),,"3.98 µM [falling, single point]"
CN(C)CCNc1ncnc2c1sc1nc(N3CCOCC3)c3c(c12)CC(C)(C)SC3,"15.8 µM [falling, single point]","35.5 µM [falling, single point]"
COc1cc(S(=O)(=O)Nc2cc(C)cc(C)c2)ccc1F,"14.1 µM [rising, partial curve]","25.1 µM [rising, partial curve]"
CCOc1ccc(Sc2cc(C(=O)NCCc3ccccc3)c3ccccc3n2)cc1,"2.24 µM [rising, partial curve]","3.98 µM [rising, single point]"
S=C(NCCc1ccccc1)NCc1ccccc1Cl,"28.2 µM [rising, single point]","35.5 µM [rising, single point]"
CCOc1ccc(CN2CCN(Cc3cccc4c3OCO4)CC2CCO)cc1 (centres undefined),"3.55 µM [falling, full curve, poor fit]","3.55 µM [falling, full curve, poor fit]"
COc1ccc(C(c2c(O)ccc3ccccc23)N2CCOCC2)c(OC)c1 (centres undefined),,"25.1 µM [falling, partial curve, poor fit]"
CCOc1ccc(NC(=O)CSC2=Nc3ccccc3C3=NC(CC(=O)NCc4ccco4)C(=O)N23)cc1 (centres undefined),"0.0562 µM [falling, full curve, poor fit]","0.0891 µM [falling, full curve]"
CCN(CC)c1ccc(/C=C2\NC(=O)NC2=O)cc1,"3.16 µM [falling, full curve]","8.91 µM [falling, partial curve, poor fit]"
CC(C)(C)C(=O)NC(=S)Nc1sc2c(c1C(N)=O)CCC2,,"0.0794 µM [falling, full curve, poor fit]"
CN(C)CCCN1C(=O)c2cccc3c(Br)ccc(c23)C1=O,"25.1 µM [falling, single point]","35.5 µM [falling, single point]"
CC(C)c1ccc(NC(=O)c2cc(S(=O)(=O)NCc3ccccc3Cl)ccc2F)cc1,"10 µM [falling, partial curve, poor fit]","20 µM [falling, partial curve, poor fit]"
O=C(CCN1C(=O)c2ccc([N+](=O)[O-])cc2C1=O)Nc1nccs1,,"0.02 µM [falling, full curve, poor fit]"
Cc1noc(C)c1S(=O)(=O)N1CCC(C(=O)N2CCN(c3ccc(Cl)cc3)CC2)CC1,,"35.5 µM [rising, single point]"

# Structures from the list above that have fluorine (2):
SMILES,AC50 [1],AC50 [2]
COc1cc(S(=O)(=O)Nc2cc(C)cc(C)c2)ccc1F,"14.1 µM [rising, partial curve]","25.1 µM [rising, partial curve]"
CC(C)c1ccc(NC(=O)c2cc(S(=O)(=O)NCc3ccccc3Cl)ccc2F)cc1,"10 µM [falling, partial curve, poor fit]","20 µM [falling, partial curve, poor fit]"
